Experimental data as given in patent publication US8551937B2, “Peptide having an extending action for half-life of object peptide in plasma” (priority 2008, dated 2013).
Part of at least one peptide drawing is inferred or uncertain, most often the ends. Where a SMILES comes first, the peptide text is derived from it. Bridges are numbered along the chain shown (N, C = ends).

Key:
[1] = biological target: T1, human type guanylate cyclase receptor B (GC-B receptor) (Homo sapiens, UniProt P20594); assay: GC-B receptor agonist activity; format: cell-based
T1 sequence (P20594 23-1047): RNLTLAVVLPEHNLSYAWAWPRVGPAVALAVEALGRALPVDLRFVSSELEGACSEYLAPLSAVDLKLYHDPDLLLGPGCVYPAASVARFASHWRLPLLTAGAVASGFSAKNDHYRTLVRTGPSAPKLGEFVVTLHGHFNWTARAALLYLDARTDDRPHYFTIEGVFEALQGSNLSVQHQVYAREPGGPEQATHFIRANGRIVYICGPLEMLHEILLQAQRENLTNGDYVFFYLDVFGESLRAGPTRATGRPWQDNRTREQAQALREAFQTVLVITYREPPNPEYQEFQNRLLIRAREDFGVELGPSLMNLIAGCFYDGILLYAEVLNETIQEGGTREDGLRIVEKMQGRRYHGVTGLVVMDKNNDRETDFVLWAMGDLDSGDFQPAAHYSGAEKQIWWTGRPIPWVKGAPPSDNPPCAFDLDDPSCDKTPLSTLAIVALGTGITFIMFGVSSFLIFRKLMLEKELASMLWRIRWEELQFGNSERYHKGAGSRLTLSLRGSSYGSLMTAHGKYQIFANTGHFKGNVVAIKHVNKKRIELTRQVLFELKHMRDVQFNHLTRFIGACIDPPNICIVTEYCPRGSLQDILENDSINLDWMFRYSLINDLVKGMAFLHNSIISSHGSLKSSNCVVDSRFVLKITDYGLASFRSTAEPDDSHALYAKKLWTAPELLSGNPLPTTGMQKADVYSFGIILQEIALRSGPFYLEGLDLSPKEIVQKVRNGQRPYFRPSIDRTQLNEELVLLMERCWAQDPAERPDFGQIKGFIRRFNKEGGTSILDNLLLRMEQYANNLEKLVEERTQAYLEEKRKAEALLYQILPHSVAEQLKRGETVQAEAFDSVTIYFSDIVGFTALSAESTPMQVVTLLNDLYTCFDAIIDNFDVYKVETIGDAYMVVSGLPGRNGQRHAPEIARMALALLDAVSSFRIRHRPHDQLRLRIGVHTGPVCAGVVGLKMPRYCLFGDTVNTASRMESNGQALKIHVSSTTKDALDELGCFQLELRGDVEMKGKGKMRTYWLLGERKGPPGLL

[2] = Extension-promoting action in mice (1); format: in vivo, mouse; conditions: 0.25 mg/kg subcutaneous twice daily for 29 days, female mice, vs medium group
[3] = Extension-promoting action in mice (2), dose-dependency; format: in vivo, mouse; conditions: 50 and 200 nmol/kg subcutaneous once daily for 56 days, female mice
[4] = Extension-promoting action in rats (3); format: in vivo, rat; conditions: 12.5, 50 and 200 nmol/1 mL/kg subcutaneous repeatedly, female rats, vs medium group

Row | Structure (SMILES) | GC-B receptor agonist activity [1] | body length [2] | body length [3] | tail length [3] | body length [4]
1 | CC[C@H](C)[C@@H]1NC(=O)[C@H](CCCNC(=N)N)NC(=O)[C@H](CC(=O)O)NC(=O)[C@H](CC(C)C)NC(=O)[C@H](CCCCN)NC(=O)[C@H](CC(C)C)NC(=O)CNC(=O)[C@H](Cc2ccccc2)NC(=O)[C@@H](N)CSSC[C@@H](C(=O)N[C@H](C(=O)N[C@@H](CCC(N)=O)C(=O)N[C@@H](CCC(N)=O)C(=O)N[C@@H](CCCNC(=N)N)C(=O)N[C@@H](CCCCN)C(=O)N[C@@H](CCC(=O)O)C(=O)N[C@@H](CO)C(=O)N[C@@H](CCCCN)C(=O)N[C@@H](CCCCN)C(=O)N2CCC[C@H]2C(=O)N2CCC[C@H]2C(=O)N[C@@H](C)C(=O)N[C@@H](CCCCN)C(=O)N[C@@H](CC(C)C)C(=O)N[C@@H](CCC(N)=O)C(=O)N2CCC[C@H]2C(=O)N[C@@H](CCCNC(=N)N)C(=O)O)C(C)C)NC(=O)CNC(=O)[C@H](CC(C)C)NC(=O)CNC(=O)[C@H](CO)NC(=O)[C@H](CCSC)NC(=O)[C@H](CO)NC(=O)CNC1=O [Chimeric CNP (B)] (H-CFGLKLDRIGSMSGLGCVQQRKESKKPPAKLQPR-OH; disulfide 1-17; N-terminus and C-terminus assumed) | agonist activity | significantly increased | – | – | –
2 | CC[C@H](C)[C@@H]1NC(=O)[C@H](CCCNC(=N)N)NC(=O)[C@H](CC(=O)O)NC(=O)[C@H](CC(C)C)NC(=O)[C@H](CCCCN)NC(=O)[C@H](CC(C)C)NC(=O)CNC(=O)[C@H](Cc2ccccc2)NC(=O)[C@@H](NC(=O)CNC(=O)[C@H](CCCCN)NC(=O)[C@H](CO)NC(=O)[C@H](CC(C)C)NC(=O)CN)CSSC[C@@H](C(=O)N[C@H](C(=O)N[C@@H](CCC(N)=O)C(=O)N[C@@H](CCC(N)=O)C(=O)N[C@@H](CCCNC(=N)N)C(=O)N[C@@H](CCCCN)C(=O)N[C@@H](CCC(=O)O)C(=O)N[C@@H](CO)C(=O)N[C@@H](CCCCN)C(=O)N[C@@H](CCCCN)C(=O)N2CCC[C@H]2C(=O)N2CCC[C@H]2C(=O)N[C@@H](C)C(=O)N[C@@H](CCCCN)C(=O)N[C@@H](CC(C)C)C(=O)N[C@@H](CCC(N)=O)C(=O)N2CCC[C@H]2C(=O)N[C@@H](CCCNC(=N)N)C(=O)O)C(C)C)NC(=O)CNC(=O)[C@H](CC(C)C)NC(=O)CNC(=O)[C@H](CO)NC(=O)[C@H](CCSC)NC(=O)[C@H](CO)NC(=O)CNC1=O [Chimeric CNP (D)] (H-GLSKGCFGLKLDRIGSMSGLGCVQQRKESKKPPAKLQPR-OH; disulfide 6-22; N-terminus and C-terminus assumed) | – | – | significantly increased in a dose-dependent manner | significantly increased in a dose-dependent manner | significantly increased
